Data reported in the supplement of paper PMC12067093, “Discovery and optimisation of a covalent ligand for TRIM25 and its application to targeted protein ubiquitination” (Chemical Science, 2025).
The list shows a part of the results.

Protein sequences, listed by entry. Tags and fused reporters are not part of them. Lines headed by an entry give the natural chain unless they say otherwise; changes in a name come on top.
UniProt O75410: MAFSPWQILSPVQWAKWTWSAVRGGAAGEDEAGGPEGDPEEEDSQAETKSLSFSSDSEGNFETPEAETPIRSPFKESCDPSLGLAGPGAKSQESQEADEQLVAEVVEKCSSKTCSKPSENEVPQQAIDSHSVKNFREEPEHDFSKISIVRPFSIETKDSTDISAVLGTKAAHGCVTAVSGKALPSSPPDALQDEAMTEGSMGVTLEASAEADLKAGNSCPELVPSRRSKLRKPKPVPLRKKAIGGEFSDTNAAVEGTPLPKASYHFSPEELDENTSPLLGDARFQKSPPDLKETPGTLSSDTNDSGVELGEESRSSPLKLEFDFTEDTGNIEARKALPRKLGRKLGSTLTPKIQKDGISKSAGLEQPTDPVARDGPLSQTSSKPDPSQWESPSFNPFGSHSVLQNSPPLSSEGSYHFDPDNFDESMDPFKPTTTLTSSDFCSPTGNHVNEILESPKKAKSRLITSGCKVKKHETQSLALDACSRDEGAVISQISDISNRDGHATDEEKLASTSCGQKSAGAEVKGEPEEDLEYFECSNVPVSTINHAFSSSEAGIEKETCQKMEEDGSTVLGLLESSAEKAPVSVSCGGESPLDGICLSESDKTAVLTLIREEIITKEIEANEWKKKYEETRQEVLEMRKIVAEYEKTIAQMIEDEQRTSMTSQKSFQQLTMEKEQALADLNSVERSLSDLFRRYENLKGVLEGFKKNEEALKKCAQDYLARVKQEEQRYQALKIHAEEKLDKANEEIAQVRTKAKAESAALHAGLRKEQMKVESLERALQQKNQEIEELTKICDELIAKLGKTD
UniProt Q86TI0: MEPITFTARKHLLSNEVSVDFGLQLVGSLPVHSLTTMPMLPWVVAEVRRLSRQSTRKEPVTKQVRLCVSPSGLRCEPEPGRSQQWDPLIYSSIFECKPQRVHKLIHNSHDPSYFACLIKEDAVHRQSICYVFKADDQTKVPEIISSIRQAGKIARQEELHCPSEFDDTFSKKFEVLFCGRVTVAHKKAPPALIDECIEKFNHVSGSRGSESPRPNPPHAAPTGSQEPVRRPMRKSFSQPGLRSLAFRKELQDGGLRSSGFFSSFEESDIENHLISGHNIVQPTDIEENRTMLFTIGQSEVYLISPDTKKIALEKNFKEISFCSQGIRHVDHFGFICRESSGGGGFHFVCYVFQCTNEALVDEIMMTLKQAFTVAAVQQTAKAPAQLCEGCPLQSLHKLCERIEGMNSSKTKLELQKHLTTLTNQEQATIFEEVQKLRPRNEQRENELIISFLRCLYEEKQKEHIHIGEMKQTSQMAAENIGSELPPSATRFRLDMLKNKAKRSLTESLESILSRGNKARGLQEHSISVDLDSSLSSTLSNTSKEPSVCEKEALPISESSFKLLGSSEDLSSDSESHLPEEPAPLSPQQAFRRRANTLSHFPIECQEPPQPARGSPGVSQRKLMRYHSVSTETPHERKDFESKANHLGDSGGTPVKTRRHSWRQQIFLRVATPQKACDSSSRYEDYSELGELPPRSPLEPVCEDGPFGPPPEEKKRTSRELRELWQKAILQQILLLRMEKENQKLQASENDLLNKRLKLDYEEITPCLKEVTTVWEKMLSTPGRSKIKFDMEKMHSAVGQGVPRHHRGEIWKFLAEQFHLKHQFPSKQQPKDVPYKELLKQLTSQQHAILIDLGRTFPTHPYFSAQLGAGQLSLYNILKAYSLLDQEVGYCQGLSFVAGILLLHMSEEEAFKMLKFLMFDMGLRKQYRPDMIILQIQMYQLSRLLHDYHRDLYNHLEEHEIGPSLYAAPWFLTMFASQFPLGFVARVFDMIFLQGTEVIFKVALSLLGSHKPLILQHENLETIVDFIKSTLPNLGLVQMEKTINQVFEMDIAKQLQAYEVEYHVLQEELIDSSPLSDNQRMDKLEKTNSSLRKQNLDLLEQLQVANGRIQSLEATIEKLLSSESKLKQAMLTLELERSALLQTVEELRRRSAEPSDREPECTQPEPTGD
UniProt Q03519, whole entry, looked up: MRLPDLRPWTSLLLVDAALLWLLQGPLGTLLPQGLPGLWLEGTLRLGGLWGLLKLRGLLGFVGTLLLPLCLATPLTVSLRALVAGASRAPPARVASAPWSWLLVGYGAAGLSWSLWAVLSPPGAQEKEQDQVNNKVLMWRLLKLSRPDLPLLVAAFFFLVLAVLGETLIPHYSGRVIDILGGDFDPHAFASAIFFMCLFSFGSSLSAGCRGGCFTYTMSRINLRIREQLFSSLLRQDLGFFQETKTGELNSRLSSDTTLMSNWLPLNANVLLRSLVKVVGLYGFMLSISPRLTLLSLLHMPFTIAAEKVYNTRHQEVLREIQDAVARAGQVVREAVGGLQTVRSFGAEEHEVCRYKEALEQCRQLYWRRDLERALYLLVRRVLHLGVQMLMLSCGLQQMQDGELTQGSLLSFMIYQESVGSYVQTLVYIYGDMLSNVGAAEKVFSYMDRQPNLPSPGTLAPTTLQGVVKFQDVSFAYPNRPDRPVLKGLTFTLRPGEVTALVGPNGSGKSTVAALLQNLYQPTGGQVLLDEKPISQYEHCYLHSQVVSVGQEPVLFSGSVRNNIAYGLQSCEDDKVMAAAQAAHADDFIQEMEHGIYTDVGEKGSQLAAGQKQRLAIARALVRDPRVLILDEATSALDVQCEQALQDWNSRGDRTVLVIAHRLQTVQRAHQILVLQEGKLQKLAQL
UniProt Q9NVG8: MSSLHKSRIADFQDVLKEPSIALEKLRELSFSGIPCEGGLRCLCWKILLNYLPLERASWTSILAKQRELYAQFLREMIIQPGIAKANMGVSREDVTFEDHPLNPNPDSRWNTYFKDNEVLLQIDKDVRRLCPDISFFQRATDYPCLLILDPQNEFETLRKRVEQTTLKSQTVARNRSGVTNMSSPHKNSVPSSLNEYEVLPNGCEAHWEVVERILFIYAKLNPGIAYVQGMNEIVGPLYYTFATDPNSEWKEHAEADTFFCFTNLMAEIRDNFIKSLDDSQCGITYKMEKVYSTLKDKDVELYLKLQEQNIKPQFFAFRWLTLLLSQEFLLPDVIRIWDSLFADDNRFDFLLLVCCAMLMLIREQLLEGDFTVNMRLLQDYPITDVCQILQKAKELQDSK
UniProt Q12788: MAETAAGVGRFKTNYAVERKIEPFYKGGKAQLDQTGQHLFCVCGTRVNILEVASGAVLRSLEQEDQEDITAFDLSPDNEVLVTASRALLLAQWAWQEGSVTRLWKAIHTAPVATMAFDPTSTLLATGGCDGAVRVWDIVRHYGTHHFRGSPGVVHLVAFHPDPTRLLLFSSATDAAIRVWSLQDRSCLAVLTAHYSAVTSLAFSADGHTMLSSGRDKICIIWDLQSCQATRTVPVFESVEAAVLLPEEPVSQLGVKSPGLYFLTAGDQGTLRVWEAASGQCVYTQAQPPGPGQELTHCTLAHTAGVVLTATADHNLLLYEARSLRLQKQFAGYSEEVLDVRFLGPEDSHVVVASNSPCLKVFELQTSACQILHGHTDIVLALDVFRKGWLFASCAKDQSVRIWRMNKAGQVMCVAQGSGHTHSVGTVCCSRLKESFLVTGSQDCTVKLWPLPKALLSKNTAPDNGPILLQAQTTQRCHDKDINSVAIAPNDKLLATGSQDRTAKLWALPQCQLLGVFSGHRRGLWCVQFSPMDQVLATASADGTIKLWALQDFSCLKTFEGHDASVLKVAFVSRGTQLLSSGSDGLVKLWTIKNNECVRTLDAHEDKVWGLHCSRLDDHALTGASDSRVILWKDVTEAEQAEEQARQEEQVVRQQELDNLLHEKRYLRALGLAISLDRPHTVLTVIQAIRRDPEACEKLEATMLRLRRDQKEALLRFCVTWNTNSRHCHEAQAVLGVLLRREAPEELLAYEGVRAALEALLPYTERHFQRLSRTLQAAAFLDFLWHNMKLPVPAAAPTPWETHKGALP
UniProt Q92797: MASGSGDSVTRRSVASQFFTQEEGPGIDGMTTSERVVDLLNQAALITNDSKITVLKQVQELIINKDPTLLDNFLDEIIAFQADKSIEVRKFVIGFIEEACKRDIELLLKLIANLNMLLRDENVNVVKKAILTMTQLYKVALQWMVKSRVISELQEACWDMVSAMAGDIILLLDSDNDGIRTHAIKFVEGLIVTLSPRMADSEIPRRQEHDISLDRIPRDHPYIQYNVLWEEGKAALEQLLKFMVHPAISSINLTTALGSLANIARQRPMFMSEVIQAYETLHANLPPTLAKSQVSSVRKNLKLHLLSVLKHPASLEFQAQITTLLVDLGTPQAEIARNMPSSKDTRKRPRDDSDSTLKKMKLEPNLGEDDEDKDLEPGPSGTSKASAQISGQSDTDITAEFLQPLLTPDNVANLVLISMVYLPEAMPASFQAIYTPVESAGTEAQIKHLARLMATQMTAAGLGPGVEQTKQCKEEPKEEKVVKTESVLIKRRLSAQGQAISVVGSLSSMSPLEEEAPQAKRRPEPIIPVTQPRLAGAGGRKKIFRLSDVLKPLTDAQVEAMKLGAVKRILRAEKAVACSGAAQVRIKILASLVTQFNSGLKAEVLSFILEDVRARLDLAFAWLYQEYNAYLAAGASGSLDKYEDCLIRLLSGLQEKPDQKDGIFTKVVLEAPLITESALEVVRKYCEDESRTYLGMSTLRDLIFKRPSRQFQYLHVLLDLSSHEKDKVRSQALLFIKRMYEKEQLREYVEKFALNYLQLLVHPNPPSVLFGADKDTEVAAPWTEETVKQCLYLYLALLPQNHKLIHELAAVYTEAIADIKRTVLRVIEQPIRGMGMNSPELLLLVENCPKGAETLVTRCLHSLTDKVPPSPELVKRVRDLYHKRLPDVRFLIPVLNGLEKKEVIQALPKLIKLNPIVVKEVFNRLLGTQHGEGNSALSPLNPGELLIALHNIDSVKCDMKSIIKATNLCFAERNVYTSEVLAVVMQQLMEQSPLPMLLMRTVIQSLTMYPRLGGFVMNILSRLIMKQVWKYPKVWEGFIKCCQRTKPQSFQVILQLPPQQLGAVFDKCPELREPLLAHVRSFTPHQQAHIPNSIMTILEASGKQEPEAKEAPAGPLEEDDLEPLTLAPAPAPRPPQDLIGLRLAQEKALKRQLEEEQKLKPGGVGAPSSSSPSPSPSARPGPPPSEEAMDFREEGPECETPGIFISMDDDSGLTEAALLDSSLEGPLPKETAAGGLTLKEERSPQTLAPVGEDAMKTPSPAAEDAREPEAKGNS
UniProt Q969Z0: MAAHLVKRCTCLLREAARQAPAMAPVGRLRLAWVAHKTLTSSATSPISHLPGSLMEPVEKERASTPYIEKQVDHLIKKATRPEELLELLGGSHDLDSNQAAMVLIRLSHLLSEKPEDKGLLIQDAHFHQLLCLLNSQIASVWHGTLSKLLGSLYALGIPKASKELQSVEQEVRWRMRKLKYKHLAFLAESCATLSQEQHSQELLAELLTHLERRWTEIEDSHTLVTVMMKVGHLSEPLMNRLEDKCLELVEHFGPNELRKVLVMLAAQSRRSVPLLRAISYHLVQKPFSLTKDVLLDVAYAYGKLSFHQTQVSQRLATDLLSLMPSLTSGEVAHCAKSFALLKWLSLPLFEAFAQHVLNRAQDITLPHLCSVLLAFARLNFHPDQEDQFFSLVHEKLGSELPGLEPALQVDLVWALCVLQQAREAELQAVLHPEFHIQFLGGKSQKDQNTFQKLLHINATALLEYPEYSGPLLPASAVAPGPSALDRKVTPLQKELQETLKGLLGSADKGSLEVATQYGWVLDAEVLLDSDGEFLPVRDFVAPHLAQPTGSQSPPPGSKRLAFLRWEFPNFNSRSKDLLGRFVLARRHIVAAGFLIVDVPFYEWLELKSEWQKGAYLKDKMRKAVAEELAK
UniProt P37837: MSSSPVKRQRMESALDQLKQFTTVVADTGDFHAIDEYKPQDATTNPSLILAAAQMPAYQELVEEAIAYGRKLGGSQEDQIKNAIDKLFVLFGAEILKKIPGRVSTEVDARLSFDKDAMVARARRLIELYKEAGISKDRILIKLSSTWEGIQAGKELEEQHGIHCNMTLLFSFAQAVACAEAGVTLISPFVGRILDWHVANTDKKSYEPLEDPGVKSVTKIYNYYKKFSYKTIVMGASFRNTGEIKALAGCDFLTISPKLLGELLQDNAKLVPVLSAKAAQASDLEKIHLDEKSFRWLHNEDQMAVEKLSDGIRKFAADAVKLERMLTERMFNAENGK
UniProt Q6P1N9: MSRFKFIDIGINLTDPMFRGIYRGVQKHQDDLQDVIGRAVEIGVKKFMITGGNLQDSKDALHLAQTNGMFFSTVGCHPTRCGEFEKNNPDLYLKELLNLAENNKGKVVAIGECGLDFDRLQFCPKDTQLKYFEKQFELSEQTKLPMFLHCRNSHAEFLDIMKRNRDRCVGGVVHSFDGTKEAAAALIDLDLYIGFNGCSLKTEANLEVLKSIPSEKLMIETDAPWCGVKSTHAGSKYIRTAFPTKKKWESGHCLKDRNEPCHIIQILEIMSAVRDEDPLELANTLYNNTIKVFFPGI
UniProt Q16514: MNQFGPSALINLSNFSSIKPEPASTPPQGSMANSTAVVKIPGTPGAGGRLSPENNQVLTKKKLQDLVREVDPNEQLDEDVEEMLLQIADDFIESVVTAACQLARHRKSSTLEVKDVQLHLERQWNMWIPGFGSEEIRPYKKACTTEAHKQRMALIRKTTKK

Compound: CC1Cc2ccccc2N1C(=O)C1CCCN(C1)C(=O)CCl (mixture of isomers) [TRIM25 ligand 11 (diastereomer mixture)]
Test: probe-labelled cysteine peptide fold change vs DMSO (competition) (log2 fold change); higher = less target engagement (more negative = stronger competition)
Settings: THP-1, incubation time: 4 h
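Note: competitive chemoproteomic profiling in live THP-1 cells with an iodoacetamide desthiobiotin (IA-DTB) probe, comparing probe-labelled peptide intensities in compound-treated cells against DMSO-treated controls.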

Target	probe-labelled cysteine peptide fold change (10 µM)	probe-labelled cysteine peptide fold change (50 µM)
TACC1_O75410_78_ESCDPSLGLAGPGAK (UniProt O75410)	-0.165	-0.326
TBL1X_O60907_571_VGASASDGSVCVLDLRK (UniProt O60907)	-0.176	-0.16
TBCE_Q15813_301_LEQLILSDTGISSLHFPDAGIGCK (UniProt Q15813)	-0.0112	-0.201
TBC1D1_Q86TI0_387+390_APAQLCEGCPLQSLHK (UniProt Q86TI0)	-0.0391	0.0225
SYK_P43405_89+101_THASPADLCHYHSQESDGLVCLLK (UniProt P43405)	0.0294	-0.215
TAP2_Q03519_362_EALEQCR (UniProt Q03519)	0.00775	-0.0584
TAOK3_Q9H2K8_795_LDEAQEAECQALR (UniProt Q9H2K8)	-0.187	0.145
TBCK_Q8TEA7_74_LVVVAEHCER (UniProt Q8TEA7)	0.0182	0.0466
TBC1D8B_Q0IIM8_80_ILHQTPDSQVYLSIACGANREEITK (UniProt Q0IIM8)	-0.0172	-0.0255
TARBP2_Q15633_73_VTVGDTSCTGQGPSK (UniProt Q15633)	0.0512	0.117
TACC1_O75410_467_LITSGCK (UniProt O75410)	-0.104	-0.377
TBC1D13_Q9NVG8_387_LLQDYPITDVCQILQK (UniProt Q9NVG8)	-0.0113	-0.192
SYNE1_Q8NF91_6460_NLFSQAFPENGDNRDVIEDTLGCLLGR (UniProt Q8NF91)	-0.15	-0.00366
TAP2_Q03519_641_VLILDEATSALDVQCEQALQDWNSR (UniProt Q03519)	-0.0532	-0.0718
TBL3_Q12788_696_DPEACEK (UniProt Q12788)	-0.0604	-0.00906
SYMPK_Q92797_686_KYCEDESR (UniProt Q92797)	-0.0067	0.119
TBRG4_Q969Z0_335_LATDLLSLMPSLTSGEVAHCAK (UniProt Q969Z0)	-0.0541	0.0927
TCEA1_P23193_294_SADEPMTTFVVCNECGNR (UniProt P23193)	-0.108	-0.144
TBL3_Q12788_526_GLWCVQFSPMDQVLATASADGTIK (UniProt Q12788)	0.0333	0.0681
SZT2_Q5T011_865_HTCVVQYILFPPHSTSTK (UniProt Q5T011)	0.144	-0.0931

Target	probe-labelled cysteine peptide fold change (10 µM)	probe-labelled cysteine peptide fold change (50 µM)
TATDN3_Q17R31_13_AAGVGLVDCHCHLSAPDFDRDLDDVLEK (UniProt Q17R31)	-0.083	-0.192
TACC3_Q9Y6A5_426_SGCSEAQPPESPETR (UniProt Q9Y6A5)	-0.0876	-0.101
TACC1_O75410_794_ICDELIAK (UniProt O75410)	0.0492	0.188
TBC1D1_Q86TI0_604_ANTLSHFPIECQEPPQPAR (UniProt Q86TI0)	0.0979	-0.0971
TBL3_Q12788_555_LWALQDFSCLK (UniProt Q12788)	0.196	0.203
SYMPK_Q92797_1068_CPELREPLLAHVR (UniProt Q92797)	-0.209	-0.0724
TBC1D13_Q9NVG8_145_ATDYPCLLILDPQNEFETLR (UniProt Q9NVG8)	-0.000134	0.36
TAOK1_Q7L7X3_798_LDEAQEAECQVLK (UniProt Q7L7X3)	0.0134	0.0982
TANGO6_Q9C0B7_375_DICPQVLDLFHFQDK (UniProt Q9C0B7)	-0.119	-0.109
TBCD_Q9BTW9_420_AWHGGCLALAELGRR (UniProt Q9BTW9)	-0.118	-0.156
TBC1D4_O60343_74_SQKPEAGGCGAPAAR (UniProt O60343)	-0.0413	-0.117
TBP_P20226_221_MVCTGAK (UniProt P20226)	-0.0387	-0.0487
TBL3_Q12788_413_AGQVMCVAQGSGHTHSVGTVCCSR (UniProt Q12788)	0.0778	0.0389
TALDO1_P37837_250_ALAGCDFLTISPK (UniProt P37837)	0.0137	-0.0255
TATDN1_Q6P1N9_261_DRNEPCHIIQILEIMSAVR (UniProt Q6P1N9)	0.226	0.114
TAF12_Q16514_143_ACTTEAHK (UniProt Q16514)	-0.0884	-0.0938
TACC3_Q9Y6A5_459_LGQPAAEQLHAGPATEEPGPCLSQQLHSASAEDTPVVQLAAETPTAESK (UniProt Q9Y6A5)	0.134	-0.465
TBL3_Q12788_613_VWGLHCSR (UniProt Q12788)	0.119	-0.0493
TARS_P26639_656_FMADIDLDPGCTLNKK (UniProt P26639)	-0.277	-0.337
TADA1_Q96BN2_139_LCSHTMMLPTR (UniProt Q96BN2)	-0.0207	-0.197

No new results follow: entries from further up.
Target	probe-labelled cysteine peptide fold change (10 µM)	probe-labelled cysteine peptide fold change (50 µM)
TBL3_Q12788_555_LWALQDFSCLK (UniProt Q12788)	0.196	0.203
SYMPK_Q92797_1068_CPELREPLLAHVR (UniProt Q92797)	-0.209	-0.0724
